Out of some 320,000 compounds screened, about 2,100 (0.66%) were called active. The inconclusive results got no clear call from the source; some entries with a clear call stand among them for comparison. The call rests on the fitted dose curve; in most records, active means well fitted inhibition curve with a large enough effect in the signal ratio, with a control signal flat (not every such curve was filed as active); inconclusive means small, poorly fitted or top-dose-only effect, or effect the other way, or a change in a side signal; inactive means flat fitted curve, though single readings scatter; the % refers to the signal ratio. Potencies beside an inconclusive call are fits to weak or partial responses and may not hold up.
Test: qHTS Assay for Lipid Storage Modulators in Drosophila S3 Cells
Details: BODIPY lipid droplet fluorescence, 18-24 h, cells fed with added oleic acid; lipid storage change, negative = inhibition: at 46.1 µM (top of the series) unless noted
How it was run: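 Laser-scanning cytometry quantifies lipid droplet accumulation (500–530 nm total intensity; droplet/cell object ratio) in oleic acid-fed (400 uM added) Drosophila S3 cells treated with a concentration series. 20 uM Triacsin C defined 100% inhibition.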
On the % scale 0 is the no-effect control and ±100 the full control effect; potency means the concentration at half of the fitted maximal effect.

| SMILES | Potency | lipid storage change, negative = inhibition |
| --- | --- | --- |
| COc1ccc2c(c1OC)C(=O)N(c1cccc(C(F)(F)F)c1)C2 | inconclusive: 2.06 µM [activator, partial curve] |  |
| O=C(C1CCCO1)N1CCC(O)(c2ccccc2)CC1 (stereo unspecified) |  | inconclusive: -13.8% |
| CCOc1ccccc1C(=O)N(CCC(=O)OC)c1ccccn1 | inconclusive: 16.4 µM [falling, partial curve, poor fit] |  |
| CCN1C(=O)C2C(C1=O)N1C(c3ccccc3)C3C(=O)N(CC)C(=O)C3N1C2c1ccccc1 (stereo unspecified) | inconclusive: 7.31 µM [falling, single point] |  |
| CCN(C1CCCCC1)S(=O)(=O)c1ccc(S(=O)(=O)NCc2ccncc2)cc1 |  | inconclusive: -46.6% |
| Fc1ccccc1Nc1nc2ccccc2n2nnnc12 | inconclusive: 0.651 µM [activator, full curve, poor fit] |  |
| COC(=O)c1c(F)c(F)c(N2CCOCC2)c(F)c1F |  | inconclusive: -21.2% |
| CCOc1cc(C(c2c(C)[nH][nH]c2=O)c2c(C)[nH][nH]c2=O)ccc1OCc1ccc([N+](=O)[O-])cc1 |  | inconclusive: 61.9% |
| CCOc1cc(/C=C2/C(=N)N3C=CSC3=NC2=O)ccc1OCCCOc1ccccc1C |  | inconclusive: 15.9% |
| CC(NC(=O)COC(=O)C1CCC1)c1ccccc1 (stereo unspecified) |  | inconclusive |
| O=C(COC(=O)c1cncc(Br)c1)NC1CCCCC1 |  | inconclusive: -12.3% |
| CS(=O)(=O)NCC(c1cccnc1)N1CCN(c2ccccc2F)CC1 (stereo unspecified) | inconclusive: 0.82 µM [activator, single point] |  |
| CCN(CC)CCn1c(NCc2cccc(OC)c2OC)nc2ccccc21 | inconclusive: 14.6 µM [activator, single point] |  |
| CCOc1ccccc1NC(=O)NCc1ccc2c(c1)OCO2 |  | inconclusive: -7.62% |
| Cc1ccc(-c2nc3ncccc3o2)cc1NC(=O)CC(C)C |  | inconclusive: -13.3% |
| CC(C)CC(=O)c1c[nH]c(C(=O)NCc2ccc(F)cc2)c1 |  | inconclusive: 13% |
| CC1CN(C(=O)CS(=O)(=O)Cc2ccc(Cl)cc2)CC(C)O1 (stereo unspecified) |  | inconclusive: -15.3% |
| O=[N+]([O-])c1ccc(-c2csc(N/N=C/c3cccnc3)n2)cc1 | inconclusive: 32.6 µM [falling, single point] |  |
| Oc1ccc(Cl)cc1/C=C/c1ccc2cccc(O)c2n1 |  | inconclusive: -84.1% |
| CCCCC(=Nc1ccc(N)cc1)C1=C(O)C(C(=O)OC)C(C)(C)CC1=O (stereo unspecified) | inconclusive: 0.092 µM [activator, full curve, poor fit] |  |
| COc1ccccc1N1CCN(Cc2nc3ccsc3c(=O)[nH]2)CC1 |  | inconclusive: 2.28% |
| CCOC(=O)C(Cc1ccccc1)NC(=O)CCc1nnc2ccc(N3CCOCC3)nn12 (stereo unspecified) |  | inconclusive: 76.7% |
| O=C(COC(=O)CC(c1ccccc1)c1ccccc1)NCc1ccccc1 | inconclusive: 3.66 µM [rising, full curve, poor fit] |  |
| COc1ccc(OC)c(NC(=O)CN2CCc3ccccc3C2)c1 |  | inconclusive: -41.5% |
| CCN(CC)CCNC(=O)Cn1c(C)cc2ccccc2c1=O | inconclusive: 13 µM [falling, partial curve, poor fit] |  |
| COc1ccc2c(c1)cc(C)c1nnc(SCC(=O)N3CCN(C(=O)c4ccco4)CC3)n12 | inconclusive: 16.4 µM [activator, single point] |  |

| SMILES | Potency | lipid storage change, negative = inhibition |
| --- | --- | --- |
| Cc1ccc(Cl)cc1NC(=O)CC(O)(C(F)(F)F)C(F)(F)F |  | inconclusive: -163% |
| O=C(Nc1ccc(Cc2nc3ccccc3s2)cc1)c1ccncc1 | inconclusive: 29.1 µM [activator, single point] |  |
| CCOC(=O)/C(C#N)=C/c1cn(CCOc2ccccc2)c2ccccc12 |  | inconclusive: -68.1% |
| CCC(=O)c1cc(F)c(N2CCN(S(=O)(=O)c3ccc(C)cc3)CC2)cc1C | inconclusive: 3.26 µM [activator, single point] |  |
| CC1CCc2c(sc(NC(=O)CSc3ncnc4c3cnn4-c3ccccc3Cl)c2C#N)C1 (stereo unspecified) |  | inconclusive: -19.9% |
| CC(=O)c1cccc(NC(=S)Nc2ccn(Cc3cccc4ccccc34)n2)c1 |  | inconclusive: 18.6% |
| O=C(Nc1ccc2nc(-c3cccs3)[nH]c2c1)c1cccs1 | inconclusive: 8.2 µM [activator, partial curve] |  |
| O=c1[nH]c2c(s1)C(c1ccc(O)cc1)C1C3CCC(C3)C1S2 (stereo unspecified) |  | inconclusive: 19% |
| O=C(CC1C(=O)NCCN1Cc1ccc(-c2ccccc2)cc1)NCCCn1ccnc1 (stereo unspecified) |  | inconclusive: -6.7% |
| O=C(NCc1ccccc1)c1nc[nH]c1C(=O)N1CCN(c2ccccc2)CC1 |  | inconclusive: 65.1% |
| Cc1sc2nc3n(c(=O)c2c1C)CCCS3 |  | inconclusive: -22% |
| O=C(c1cc2nc(-c3ccccc3)cc(C(F)(F)F)n2n1)N1CCOCC1 | inconclusive: 0.0046 µM [activator, full curve, poor fit] |  |
| COc1ccc(C(=O)N/C(=C/c2ccccc2F)C(=O)NCCN2CCOCC2)cc1OC |  | inconclusive: 46.4% |
| O=C(NN=C1CCCC1)c1ccccc1O | inconclusive: 29.1 µM [activator, single point] |  |
| N#Cc1c(SCC(=O)Nc2ccc(C(F)(F)F)cc2)sc2c(O)cc(=O)[nH]c12 | inconclusive: 29.1 µM [falling, single point] |  |
| O=c1cc(CSc2nnc(COc3ccccc3Cl)o2)nc2sccn12 |  | inconclusive: 35.5% |
| CCOC(=O)c1cccc(NC(=O)CCCn2c(=O)c3cccn3c3cccnc32)c1 |  | inconclusive: 8.9% |
| CCSc1ccc(C(=O)NCC(=O)O)cc1 |  | inconclusive: -13.5% |
| CCN(CC)c1nc(N)n(CCSC(=S)N(C)C)c(=O)n1 |  | inconclusive: 9.34% |
| CCOC(=O)c1sc(NC(=O)c2ccc(S(=O)(=O)N3CCOCC3)cc2)cc1C |  | inconclusive: 47.1% |
| COc1ccc(CNC(=O)Cn2nc(-c3ccc4c(c3)OCCO4)ccc2=O)cc1 |  | inconclusive: 32.8% |
| Cc1ccc(C(=O)Nn2cnc3ccccc3c2=O)cc1C |  | inconclusive: -25% |
| CCc1ccc(OCCCC(=O)Nc2ccc(S(=O)(=O)Nc3cc(C)nc(C)n3)cc2)cc1 |  | inconclusive: 70.3% |
| COc1ccc(C)cc1NC(=S)NNC(=O)c1c(Br)cnn1C |  | inconclusive: -47.2% [at 0.369 µM] |
| CCc1nnc(SCc2ccc(CSc3nnc(CC)n3N)cc2)n1N | inconclusive: 4.11 µM [falling, partial curve, poor fit] |  |
| O=C(Cc1n[nH]c(=O)c2ccccc12)Nc1cc(Cl)ccc1-n1cncn1 | inconclusive: 0.411 µM [activator, partial curve] |  |

| SMILES | Potency | lipid storage change, negative = inhibition |
| --- | --- | --- |
| CN(C)S(=O)(=O)n1cc(/C=C(\NC(=O)c2ccccc2)C(=O)NCCCn2ccnc2)c2ccccc21 | inconclusive: 18.4 µM [activator, single point] |  |
| Cc1cc(Br)ccc1SCC(=O)OCC(=O)N1CCN(C(=O)c2ccco2)CC1 |  | inconclusive: 2.32% |
| O=[N+]([O-])c1cc(-n2cnnn2)ccc1N1CCC(Cc2ccccc2)CC1 | inconclusive: 18.4 µM [cytotoxic, single point] |  |
| Oc1cc(NCCc2cccnc2)cc2cccnc12 |  | inconclusive: 14.8% |
| CCOC(=O)N1CCN(CC(=O)N2c3ccccc3CCc3ccccc32)CC1 |  | inconclusive: -4.74% |
| CCOc1ccccc1C(=O)Nc1ccsc1C(=O)OC | inconclusive: 1.46 µM [activator, full curve, poor fit] |  |
| O=C(COC(=O)CNS(=O)(=O)c1ccc(F)c(F)c1F)Nc1ccc(OC(F)F)cc1 |  | inconclusive: 36.5% [activator] |
| COC(=O)CCC(=O)c1ccn(S(=O)(=O)c2ccccc2)c1 |  | inconclusive: 14% |
| C/C(CC(=O)Nc1cccc(C(F)(F)F)c1)=N\NC(=O)c1ccncc1 | active: 4.61 µM |  |
| COc1cc(-n2c(C)nc3cc(C(=O)NCC4CCCO4)ccc32)cc(OC)c1OC (stereo unspecified) |  | inconclusive: -54.4% |
| CCCCCCCC(=O)N/N=C(/C)c1c(O)cc(C)oc1=O | inconclusive: 6.51 µM [activator, single point] |  |
| CCCc1ccc(C(=O)NNc2cc(Cl)ccc2Cl)cc1 |  | inconclusive: -17% |
| CCCc1cc(=O)oc2cc(OCC(=O)N(C)C)c(Cl)cc12 | inconclusive: 29.1 µM [activator, single point] |  |
| COCC(C)NCc1ccc(OC)c(Br)c1 (stereo unspecified) |  | inconclusive: -57.7% |
| O=S1(=O)N[C@@H](CC2=CCCCC2)C2CCCCC2O1 (stereo partly specified) |  | inconclusive: 8.41% |
| CCOP(=O)(c1ccc(N(C)C)cc1)C(O)c1ccccc1OC (stereo unspecified) |  | inconclusive: -40.1% |
| CCCC(C(=O)NC(C)(C)C)N(Cc1ccc(F)cc1)C(=O)c1snc(C(N)=O)c1N (stereo unspecified) |  | inconclusive: -30.9% |
| COc1cc(/C=C/C(=O)N2CCN(c3ccccn3)CC2)cc(OC)c1OC | active: 16.4 µM |  |
| CC1CCCCC1NC(=O)C1Cc2ccccc2CN1S(C)(=O)=O (stereo unspecified) |  | inconclusive: -29.4% |
| CN(C)CCCNC(=O)Cc1ccc(Br)cc1 |  | inconclusive: -8.85% |
| OC(c1nc2ccccc2[nH]1)C(O)C(O)C(O)c1nc2ccccc2[nH]1 (stereo unspecified) | inconclusive: 0.731 µM [falling, full curve, poor fit] |  |
| COc1ccc(-n2nc3cc(C)c(NC(=O)C(C)C)cc3n2)cc1 |  | inconclusive: -1.94% |
| CNS(=O)(=O)c1cccc(C(=O)OCc2cc(Cl)cc3c2OCOC3)c1 |  | inconclusive: -0.126% |
| O=C(CN1C(=O)/C(=C\c2cccc(Br)c2)Oc2ccccc21)NCCCN1CCOCC1 | inconclusive: 6.51 µM [activator, single point] |  |

Quoted at random: 3 records from the list

| SMILES | Potency | lipid storage change, negative = inhibition |
| --- | --- | --- |
| COc1cc(/C=C/C(=O)N2CCN(c3ccccn3)CC2)cc(OC)c1OC | active: 16.4 µM |  |
| CCOP(=O)(c1ccc(N(C)C)cc1)C(O)c1ccccc1OC (stereo unspecified) |  | inconclusive: -40.1% |
| CCCc1cc(=O)oc2cc(OCC(=O)N(C)C)c(Cl)cc12 | inconclusive: 29.1 µM [activator, single point] |  |

Given comma-delimited: part of the list above.
SMILES,Potency,"lipid storage change, negative = inhibition"
N#Cc1c(SCC(=O)Nc2ccc(C(F)(F)F)cc2)sc2c(O)cc(=O)[nH]c12,"inconclusive: 29.1 µM [falling, single point]",
O=c1cc(CSc2nnc(COc3ccccc3Cl)o2)nc2sccn12,,inconclusive: 35.5%
CCOC(=O)c1cccc(NC(=O)CCCn2c(=O)c3cccn3c3cccnc32)c1,,inconclusive: 8.9%

Reference: PubChem BioAssay AID2685 (National Center for Advancing Translational Sciences (NCATS), 2010)
